Source: the supplement of paper PMC10849652
Some of the results follow.

Chains of the proteins cited; added tags and fusions are not shown. Lines headed by an entry give the natural chain unless they say otherwise; changes in a name come on top.
UniProt Q6PH81: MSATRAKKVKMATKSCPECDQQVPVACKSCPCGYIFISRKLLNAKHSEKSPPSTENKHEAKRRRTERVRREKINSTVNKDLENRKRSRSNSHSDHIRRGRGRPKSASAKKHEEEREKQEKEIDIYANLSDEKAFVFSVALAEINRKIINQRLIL
UniProt Q14012: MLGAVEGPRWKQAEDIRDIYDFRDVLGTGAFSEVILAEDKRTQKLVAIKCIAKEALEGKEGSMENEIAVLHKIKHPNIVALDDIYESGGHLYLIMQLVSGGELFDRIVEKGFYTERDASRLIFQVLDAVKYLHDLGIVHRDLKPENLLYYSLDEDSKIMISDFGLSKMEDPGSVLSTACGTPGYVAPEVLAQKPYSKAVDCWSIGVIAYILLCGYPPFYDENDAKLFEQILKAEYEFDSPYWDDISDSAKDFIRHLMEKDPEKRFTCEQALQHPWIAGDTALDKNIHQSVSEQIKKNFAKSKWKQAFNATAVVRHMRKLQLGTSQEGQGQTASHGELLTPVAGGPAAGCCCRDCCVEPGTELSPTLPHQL
UniProt Q01518, whole entry, looked up: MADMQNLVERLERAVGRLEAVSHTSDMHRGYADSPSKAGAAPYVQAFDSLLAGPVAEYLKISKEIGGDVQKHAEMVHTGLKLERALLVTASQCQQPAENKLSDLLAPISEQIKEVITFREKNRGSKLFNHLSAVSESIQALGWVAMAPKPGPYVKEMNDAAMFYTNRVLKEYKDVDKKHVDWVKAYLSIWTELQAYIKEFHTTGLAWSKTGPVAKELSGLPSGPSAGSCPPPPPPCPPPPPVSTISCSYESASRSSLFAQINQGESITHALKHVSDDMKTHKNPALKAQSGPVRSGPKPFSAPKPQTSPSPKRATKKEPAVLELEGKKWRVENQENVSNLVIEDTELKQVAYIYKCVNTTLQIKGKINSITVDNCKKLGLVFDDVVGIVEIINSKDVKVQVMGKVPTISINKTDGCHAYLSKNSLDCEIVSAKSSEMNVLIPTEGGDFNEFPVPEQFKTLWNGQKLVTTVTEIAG
UniProt P43251: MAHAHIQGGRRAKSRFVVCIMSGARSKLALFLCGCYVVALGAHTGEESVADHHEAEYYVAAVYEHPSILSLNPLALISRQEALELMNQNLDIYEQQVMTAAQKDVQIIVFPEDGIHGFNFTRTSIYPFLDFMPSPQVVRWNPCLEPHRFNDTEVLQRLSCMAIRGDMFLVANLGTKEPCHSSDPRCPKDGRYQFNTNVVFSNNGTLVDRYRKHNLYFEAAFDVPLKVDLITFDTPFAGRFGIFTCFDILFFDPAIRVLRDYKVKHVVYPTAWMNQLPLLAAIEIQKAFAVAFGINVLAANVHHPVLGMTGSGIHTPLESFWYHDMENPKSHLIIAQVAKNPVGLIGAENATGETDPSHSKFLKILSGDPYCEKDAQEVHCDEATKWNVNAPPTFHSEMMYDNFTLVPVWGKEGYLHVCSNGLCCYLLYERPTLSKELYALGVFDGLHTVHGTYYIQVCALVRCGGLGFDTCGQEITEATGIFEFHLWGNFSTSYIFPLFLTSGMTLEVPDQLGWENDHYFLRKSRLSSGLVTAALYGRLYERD
UniProt Q9NSG2: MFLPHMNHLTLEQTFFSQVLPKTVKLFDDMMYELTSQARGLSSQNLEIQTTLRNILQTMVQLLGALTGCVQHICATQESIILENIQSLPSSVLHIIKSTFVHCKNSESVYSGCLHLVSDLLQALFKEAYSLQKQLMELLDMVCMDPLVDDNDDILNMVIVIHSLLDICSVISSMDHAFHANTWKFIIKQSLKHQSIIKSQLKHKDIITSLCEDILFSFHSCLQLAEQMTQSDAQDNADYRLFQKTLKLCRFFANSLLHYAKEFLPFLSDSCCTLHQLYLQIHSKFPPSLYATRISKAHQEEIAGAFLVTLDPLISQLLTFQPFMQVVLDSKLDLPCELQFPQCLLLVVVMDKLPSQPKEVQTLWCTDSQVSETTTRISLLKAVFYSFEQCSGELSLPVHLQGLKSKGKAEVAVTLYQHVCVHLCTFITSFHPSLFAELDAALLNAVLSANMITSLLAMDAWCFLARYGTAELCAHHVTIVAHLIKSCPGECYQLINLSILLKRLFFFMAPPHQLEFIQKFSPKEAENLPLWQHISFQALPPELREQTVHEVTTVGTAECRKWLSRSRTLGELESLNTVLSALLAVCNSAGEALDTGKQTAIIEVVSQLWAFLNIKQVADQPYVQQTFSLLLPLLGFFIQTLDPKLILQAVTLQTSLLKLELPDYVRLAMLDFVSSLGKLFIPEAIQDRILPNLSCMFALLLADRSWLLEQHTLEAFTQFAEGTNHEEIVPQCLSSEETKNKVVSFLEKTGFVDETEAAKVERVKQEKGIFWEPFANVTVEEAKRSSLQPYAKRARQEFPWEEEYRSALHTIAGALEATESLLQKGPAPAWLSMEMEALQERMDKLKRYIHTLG
UniProt Q0VDD7: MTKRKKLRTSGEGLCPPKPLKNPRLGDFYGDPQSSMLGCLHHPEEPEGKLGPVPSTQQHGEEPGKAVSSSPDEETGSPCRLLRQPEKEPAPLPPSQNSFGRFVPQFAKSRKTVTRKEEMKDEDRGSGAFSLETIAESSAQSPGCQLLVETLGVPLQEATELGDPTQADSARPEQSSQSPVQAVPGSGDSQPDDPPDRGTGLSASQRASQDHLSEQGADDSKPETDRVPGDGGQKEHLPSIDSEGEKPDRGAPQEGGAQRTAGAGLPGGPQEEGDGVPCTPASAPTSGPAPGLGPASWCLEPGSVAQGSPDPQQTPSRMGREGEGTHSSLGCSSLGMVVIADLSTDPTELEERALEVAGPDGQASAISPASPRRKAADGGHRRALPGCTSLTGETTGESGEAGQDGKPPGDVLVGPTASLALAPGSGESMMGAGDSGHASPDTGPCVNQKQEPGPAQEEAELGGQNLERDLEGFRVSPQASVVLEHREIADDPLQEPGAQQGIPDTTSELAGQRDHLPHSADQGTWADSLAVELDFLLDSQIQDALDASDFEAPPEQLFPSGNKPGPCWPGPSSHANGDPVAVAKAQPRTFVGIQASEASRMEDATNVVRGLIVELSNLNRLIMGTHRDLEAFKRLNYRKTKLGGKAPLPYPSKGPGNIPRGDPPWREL
UniProt Q86VG3: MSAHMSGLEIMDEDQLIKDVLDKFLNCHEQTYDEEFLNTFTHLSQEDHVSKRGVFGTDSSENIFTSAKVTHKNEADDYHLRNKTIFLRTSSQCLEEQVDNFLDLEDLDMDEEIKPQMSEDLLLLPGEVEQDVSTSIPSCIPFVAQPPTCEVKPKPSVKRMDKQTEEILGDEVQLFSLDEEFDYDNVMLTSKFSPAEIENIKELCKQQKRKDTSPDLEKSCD
UniProt Q16581: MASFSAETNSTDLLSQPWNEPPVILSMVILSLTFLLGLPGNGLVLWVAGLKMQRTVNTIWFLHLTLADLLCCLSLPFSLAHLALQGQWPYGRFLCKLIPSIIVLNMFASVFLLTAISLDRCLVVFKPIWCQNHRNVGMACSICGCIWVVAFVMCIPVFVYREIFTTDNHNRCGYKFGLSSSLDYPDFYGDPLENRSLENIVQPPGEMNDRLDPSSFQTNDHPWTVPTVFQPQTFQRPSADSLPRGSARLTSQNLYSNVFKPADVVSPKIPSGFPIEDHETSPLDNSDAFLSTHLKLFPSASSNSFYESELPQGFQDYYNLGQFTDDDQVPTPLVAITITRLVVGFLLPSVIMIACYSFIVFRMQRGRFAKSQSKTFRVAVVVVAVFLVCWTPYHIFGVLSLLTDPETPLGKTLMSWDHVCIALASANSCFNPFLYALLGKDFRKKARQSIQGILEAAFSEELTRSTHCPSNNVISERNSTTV
UniProt Q7Z4R8: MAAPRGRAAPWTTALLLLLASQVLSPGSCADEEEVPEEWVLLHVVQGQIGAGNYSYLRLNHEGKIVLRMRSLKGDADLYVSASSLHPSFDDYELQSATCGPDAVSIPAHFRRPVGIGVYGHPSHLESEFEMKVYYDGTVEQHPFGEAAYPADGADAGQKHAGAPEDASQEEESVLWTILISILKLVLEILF
UniProt Q7Z6I8: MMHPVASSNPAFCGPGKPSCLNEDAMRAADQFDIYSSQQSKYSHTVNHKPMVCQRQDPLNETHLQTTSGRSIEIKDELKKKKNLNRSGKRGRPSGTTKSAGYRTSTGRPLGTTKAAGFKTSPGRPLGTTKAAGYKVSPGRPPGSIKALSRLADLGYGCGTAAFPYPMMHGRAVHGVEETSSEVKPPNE
UniProt Q504U0: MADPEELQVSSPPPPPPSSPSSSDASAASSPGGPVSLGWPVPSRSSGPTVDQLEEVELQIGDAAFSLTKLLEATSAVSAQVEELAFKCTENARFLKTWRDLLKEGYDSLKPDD
UniProt P02748: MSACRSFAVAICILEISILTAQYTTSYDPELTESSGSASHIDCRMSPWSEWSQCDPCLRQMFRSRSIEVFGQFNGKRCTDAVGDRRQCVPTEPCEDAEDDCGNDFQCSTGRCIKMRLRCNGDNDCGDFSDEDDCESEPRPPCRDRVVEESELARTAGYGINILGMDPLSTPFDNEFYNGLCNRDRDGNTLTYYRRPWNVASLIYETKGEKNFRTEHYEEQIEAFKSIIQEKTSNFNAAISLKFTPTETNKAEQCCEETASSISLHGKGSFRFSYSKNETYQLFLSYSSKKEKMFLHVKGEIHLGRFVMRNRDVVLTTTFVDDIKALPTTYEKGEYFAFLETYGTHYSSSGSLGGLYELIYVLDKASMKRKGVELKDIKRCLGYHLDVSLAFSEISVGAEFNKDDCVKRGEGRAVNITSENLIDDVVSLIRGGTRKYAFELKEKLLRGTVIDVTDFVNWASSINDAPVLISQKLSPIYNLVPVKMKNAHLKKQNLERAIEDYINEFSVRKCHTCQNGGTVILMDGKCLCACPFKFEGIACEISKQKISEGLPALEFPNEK
UniProt Q9BTV7: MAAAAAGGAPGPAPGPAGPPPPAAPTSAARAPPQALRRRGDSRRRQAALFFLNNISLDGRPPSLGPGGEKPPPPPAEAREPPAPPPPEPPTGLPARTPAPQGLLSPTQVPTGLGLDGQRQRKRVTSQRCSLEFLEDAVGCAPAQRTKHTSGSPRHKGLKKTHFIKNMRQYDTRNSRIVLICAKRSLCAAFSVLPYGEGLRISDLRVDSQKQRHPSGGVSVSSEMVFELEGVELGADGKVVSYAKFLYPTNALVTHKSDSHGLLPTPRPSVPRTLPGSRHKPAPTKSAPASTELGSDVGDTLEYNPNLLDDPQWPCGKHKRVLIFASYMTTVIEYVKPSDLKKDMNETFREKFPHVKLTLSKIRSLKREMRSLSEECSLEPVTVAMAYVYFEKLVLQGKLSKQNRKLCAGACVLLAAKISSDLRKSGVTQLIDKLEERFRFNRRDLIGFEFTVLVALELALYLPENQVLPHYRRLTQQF
UniProt Q7Z7L8: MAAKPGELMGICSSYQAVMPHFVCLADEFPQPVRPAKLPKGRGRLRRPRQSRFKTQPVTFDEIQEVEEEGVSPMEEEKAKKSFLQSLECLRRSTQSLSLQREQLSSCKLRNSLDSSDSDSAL
UniProt Q9GZU0: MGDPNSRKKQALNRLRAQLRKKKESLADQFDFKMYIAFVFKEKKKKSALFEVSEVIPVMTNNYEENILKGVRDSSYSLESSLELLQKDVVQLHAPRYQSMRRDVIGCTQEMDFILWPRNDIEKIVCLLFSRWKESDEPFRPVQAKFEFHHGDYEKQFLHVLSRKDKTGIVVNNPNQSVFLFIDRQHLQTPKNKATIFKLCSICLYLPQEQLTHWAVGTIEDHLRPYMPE
UniProt Q96NL8: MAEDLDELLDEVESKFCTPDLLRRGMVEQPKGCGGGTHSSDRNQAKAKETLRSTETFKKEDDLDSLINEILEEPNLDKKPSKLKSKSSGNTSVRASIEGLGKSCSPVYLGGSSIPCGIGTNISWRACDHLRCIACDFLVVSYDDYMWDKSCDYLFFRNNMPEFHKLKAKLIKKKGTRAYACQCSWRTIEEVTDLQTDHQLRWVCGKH
UniProt Q9UQM7, whole entry, looked up: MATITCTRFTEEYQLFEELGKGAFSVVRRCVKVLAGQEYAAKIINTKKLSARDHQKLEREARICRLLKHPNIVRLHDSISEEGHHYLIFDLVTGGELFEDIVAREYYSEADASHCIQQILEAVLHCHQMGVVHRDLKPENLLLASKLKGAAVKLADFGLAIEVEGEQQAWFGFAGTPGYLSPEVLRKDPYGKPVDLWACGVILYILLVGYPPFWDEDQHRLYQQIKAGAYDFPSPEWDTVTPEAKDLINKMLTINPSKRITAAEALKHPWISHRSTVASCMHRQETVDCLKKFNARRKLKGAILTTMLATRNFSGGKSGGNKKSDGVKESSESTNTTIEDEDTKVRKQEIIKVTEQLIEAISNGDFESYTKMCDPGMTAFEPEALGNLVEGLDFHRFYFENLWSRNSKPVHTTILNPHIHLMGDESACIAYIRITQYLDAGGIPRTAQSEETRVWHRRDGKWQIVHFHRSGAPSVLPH
UniProt P07451: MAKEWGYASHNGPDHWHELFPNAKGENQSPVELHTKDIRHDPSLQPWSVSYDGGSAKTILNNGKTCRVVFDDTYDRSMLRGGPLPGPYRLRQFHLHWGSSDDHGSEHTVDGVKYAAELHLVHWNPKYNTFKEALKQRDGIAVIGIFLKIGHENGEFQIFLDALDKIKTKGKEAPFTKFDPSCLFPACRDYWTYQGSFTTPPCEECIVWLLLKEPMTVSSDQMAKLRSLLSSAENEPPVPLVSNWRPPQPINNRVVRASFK

Experiments:
Assay in all cases: log2 fold change, soluble protein after heating vs DMSO (PISA); higher = thermal stabilisation; K562 cells, 10 uM, 30 min; active = over 0.2 and 3.5 SD of the protein, either way, in both replicates (recomputed)
[1] = compound: Cc1cccc(CC(=O)N2CCc3c2ccc(-c2cn(C)c4ncnc(N)c24)c3F)n1
Method in brief: (§1)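 K562 cells (2×10^6 cells/mL) were treated with 10 μM compound for 30 min, and aliquots were heated for 3 min over 48°C-58°C. Pooled aliquots were extracted in PBS with 0.5% NP-40 at 4°C, and the supernatant after 21,000xg for 90 min was measured by TMTpro 16plex LC-MS/MS with channel sums equalised. Reported thermal stability, relative to control samples and from duplicates, is a log2 fold change.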

dasatinib = compound: Cc1nc(Nc2ncc(C(=O)Nc3c(C)cccc3Cl)s2)cc(N2CCN(CCO)CC2)n1 [dasatinib]
Method in brief: as §1

[2] = compound: Cn1cc(-c2ccc3c(c2)CCN3C(=O)Cc2cccc(C(F)(F)F)c2)c2c(N)ncnc21
Method in brief: as §1

[3] = compound: Cn1cc(-c2ccc3nnc(C(F)(F)c4ccc5ncccc5c4)n3n2)cn1
Method in brief: as §1

tipifarnib = compound: Cn1cncc1[C@@](N)(c1ccc(Cl)cc1)c1ccc2c(c1)c(-c1cccc(Cl)c1)cc(=O)n2C [tipifarnib]
Method in brief: as §1

[4] = compound: NC(=O)Nc1cc(-c2cccc(F)c2)sc1C(=O)N[C@H]1CCCNC1
Method in brief: as §1

[5] = compound: NC(=O)c1cnc(N[C@@H]2CCCC[C@@H]2N)nc1Nc1cccc(-n2nccn2)c1
Method in brief: as §1

[6] = compound: NCC(=O)Nc1ccc(-n2nc(C(F)(F)F)cc2-c2ccc3c(ccc4ccccc43)c2)cc1
Method in brief: as §1

entinostat = compound: Nc1ccccc1NC(=O)c1ccc(CNC(=O)OCc2cccnc2)cc1 [entinostat]
Method in brief: as §1

vorinostat = compound: O=C(CCCCCCC(=O)Nc1ccccc1)NO [vorinostat]
Method in brief: as §1

citarinostat = compound: O=C(CCCCCCNC(=O)c1cnc(N(c2ccccc2)c2ccccc2Cl)nc1)NO [citarinostat]
Method in brief: as §1

[7] = compound: O=C1NC(=O)C(c2cnc3ccccn23)=C1c1cn2c3c(cc(F)cc13)CN(C(=O)N1CCCCC1)CC2
Method in brief: as §1

[8] = compound: c1cc(OCCN2CCCCC2)cc(-c2n[nH]c3ccc(-c4nnc[nH]4)cc23)c1
Method in brief: as §1

bafetinib = compound: Cc1ccc(NC(=O)c2ccc(CN3CC[C@H](N(C)C)C3)c(C(F)(F)F)c2)cc1Nc1nccc(-c2cncnc2)n1 [bafetinib]
Method in brief: as §1

nilotinib = compound: Cc1cn(-c2cc(NC(=O)c3ccc(C)c(Nc4nccc(-c5cccnc5)n4)c3)cc(C(F)(F)F)c2)cn1 [nilotinib]
Method in brief: as §1

[9] = compound: Cc1nc(Nc2n[nH]c3c2CN(C(=O)N[C@H](CN(C)C)c2ccccc2)C3(C)C)c2sccc2n1
Method in brief: as §1

[10] = compound: Cc1ncc(-c2ccnc(Nc3ccc(S(C)(=O)=O)cc3)n2)n1C(C)C
Method in brief: as §1

mubritinib = compound: FC(F)(F)c1ccc(/C=C/c2nc(COc3ccc(CCCCn4ccnn4)cc3)co2)cc1 [mubritinib]
Method in brief: as §1

[11] = compound: NC1(c2ccc(-c3nc4ccn5c(=O)[nH]nc5c4cc3-c3ccccc3)cc2)CCC1
Method in brief: as §1

silmitasertib = compound: O=C(O)c1ccc2c(c1)nc(Nc1cccc(Cl)c1)c1ccncc12 [silmitasertib]
Method in brief: as §1

Measured: log2 fold change

C19orf54 (UniProt Q5BKX5)
inactive: [1] 0.007 | dasatinib -0.175 | [2] 0.03 | [3] 0.14 | tipifarnib 0.013 | [4] 0.098 | [5] 0.004 | [6] 0.086 | entinostat -0.111 | vorinostat -0.064 | citarinostat -0.09 | [7] -0.05 | [8] -0.121

C22orf39 (UniProt Q6P5X5)
inactive: bafetinib -0.04 | nilotinib -0.07 | [9] 0.038 | dasatinib -0.232 | [10] -0.12 | [2] -0.036 | [3] 0.031 | tipifarnib -0.071 | mubritinib 0.031 | [4] 0.093 | [5] -0.036 | [11] -0.106 | entinostat 0.037 | silmitasertib 0.016 | [7] 0.089

C16orf87 (UniProt Q6PH81)
inactive: bafetinib -0.082 | nilotinib -0.008 | [9] -0.043 | [10] -0.011 | mubritinib 0.158 | [4] -0.194 | [11] -0.587 | [6] -0.018 | entinostat -0.025 | citarinostat -0.05 | silmitasertib -0.04 | [7] 0 | [8] 0.05

BUD13 (UniProt Q9BRD0)
inactive: [1] -0.015 | nilotinib 0.076 | [9] 0.032 | dasatinib 0.126 | [10] -0.522 | [2] -0.261 | [3] -0.114 | tipifarnib 0.097 | mubritinib -0.03 | [4] 0.237 | [5] 0.104 | [11] 0.272 | [6] 0.037 | entinostat -0.096 | vorinostat -0.035 | silmitasertib 0 | [7] 0.104

C15orf41 (UniProt Q9Y2V0)
active: dasatinib -0.357
inactive: [1] -0.101 | [2] -0.097 | [3] -0.088 | tipifarnib -0.087 | [4] -0.076 | [5] -0.046 | [6] -0.061 | entinostat -0.01 | vorinostat 0.069 | citarinostat 0.07 | [7] 0.023 | [8] -0.007

CAMK1 (UniProt Q14012)
inactive: bafetinib 0.166 | [3] 0.007 | citarinostat 0.152 | [8] 0.049

CAP1 isoform 2 (UniProt Q01518)
inactive: bafetinib 0.242 | mubritinib 0.156 | [11] -0.049 | silmitasertib 0.033

BTD isoform 3 (UniProt P43251)
inactive: bafetinib -0.032 | nilotinib -0.014 | [9] -0.003 | dasatinib -0.003 | [10] -0.007 | [2] 0.013 | [3] -0.013 | tipifarnib -0.027 | mubritinib 0.01 | [4] 0.021 | [11] -0.064 | [6] -0.059 | entinostat -0.054 | citarinostat -0.052 | silmitasertib 0.015 | [7] 0.105 | [8] 0.028

C1orf112 (UniProt Q9NSG2)
inactive: [1] -0.035 | dasatinib -0.081 | tipifarnib 0.169 | [4] 0.004 | [5] 0.009 | [6] 0.001 | entinostat -0.008 | vorinostat 0.039 | citarinostat 0.021 | [8] -0.065

C19orf57 (UniProt Q0VDD7)
inactive: bafetinib 0.104 | [1] -0.088 | dasatinib -0.059 | [2] 0.021 | [3] 0 | [5] -0.132 | [6] -0.027 | vorinostat 0.002

C11orf74 (UniProt Q86VG3)
inactive: [1] -0.251 | nilotinib 0.24 | [9] 0.037 | [10] -0.229 | mubritinib 0.033 | [4] 0.003 | [11] 0.015 | [6] -0.001 | entinostat 0.011 | vorinostat -0.081 | citarinostat 0.121 | silmitasertib 0.025 | [7] -0.085 | [8] -0.287

C3AR1 (UniProt Q16581)
inactive: bafetinib 0.107 | nilotinib 0.099 | [9] 0.202 | [10] -0.212

C6orf120 (UniProt Q7Z4R8)
inactive: bafetinib -0.145 | nilotinib -0.045 | [9] 0.044 | dasatinib 0.029 | [10] -0.048 | [3] -0.032 | tipifarnib 0.026 | [4] 0.068 | [6] -0.018 | entinostat 0.083 | citarinostat 0.031 | [8] -0.141

C5orf24 (UniProt Q7Z6I8)
inactive: [1] -0.033 | nilotinib -0.384 | [9] 0.43 | dasatinib 0.25 | [10] -0.538 | tipifarnib 0.159 | mubritinib 0.044 | [11] 0.07 | [6] 0.127 | vorinostat -0.012 | silmitasertib 0.219 | [7] -0.063

CA1 (UniProt E5RIF9)
inactive: bafetinib -0.042 | dasatinib -0.098 | [6] -0.029 | [7] -0.026

C12orf65 (UniProt Q9H3J6)
inactive: bafetinib 0.055 | nilotinib -0.08 | [9] 0.057 | dasatinib 0.008 | [10] -0.049 | [2] -0.128 | [3] -0.116 | mubritinib -0.051 | [4] 0.081 | [5] 0.095 | [11] 0.181 | [6] -0.059 | entinostat -0.155 | citarinostat -0.019 | silmitasertib 0.047 | [8] -0.175

C4orf46 (UniProt Q504U0)
inactive: nilotinib -0.006 | [9] 0.238 | [10] 0.027

C9 (UniProt P02748)
inactive: dasatinib -0.054 | [2] 0.026 | [3] 0.044 | mubritinib -0.18 | [11] 0.276 | silmitasertib 0.18 | [7] 0.149

BSN (UniProt Q9UPA5)
inactive: [2] 0.004 | [5] 0.018 | [6] 0.067

CARD9 (UniProt Q9H257)
inactive: [3] 0.085 | [5] 0.37

C16orf70 (UniProt Q9BSU1)
inactive: tipifarnib -0.028 | [4] 0.237 | [5] -0.106 | entinostat 0.064 | citarinostat 0.001 | [7] 0.224 | [8] -0.024

CALM1 (UniProt G3V361)
inactive: dasatinib -0.049 | [4] 0.351 | entinostat -0.02

CABLES2 (UniProt Q9BTV7)
inactive: mubritinib 0.113 | [11] -0.081 | silmitasertib -0.226

9 consecutive entries from above, quoted:
CA1 (UniProt E5RIF9)
inactive: bafetinib -0.042 | dasatinib -0.098 | [6] -0.029 | [7] -0.026

C12orf65 (UniProt Q9H3J6)
inactive: bafetinib 0.055 | nilotinib -0.08 | [9] 0.057 | dasatinib 0.008 | [10] -0.049 | [2] -0.128 | [3] -0.116 | mubritinib -0.051 | [4] 0.081 | [5] 0.095 | [11] 0.181 | [6] -0.059 | entinostat -0.155 | citarinostat -0.019 | silmitasertib 0.047 | [8] -0.175

C4orf46 (UniProt Q504U0)
inactive: nilotinib -0.006 | [9] 0.238 | [10] 0.027

C9 (UniProt P02748)
inactive: dasatinib -0.054 | [2] 0.026 | [3] 0.044 | mubritinib -0.18 | [11] 0.276 | silmitasertib 0.18 | [7] 0.149

BSN (UniProt Q9UPA5)
inactive: [2] 0.004 | [5] 0.018 | [6] 0.067

CARD9 (UniProt Q9H257)
inactive: [3] 0.085 | [5] 0.37

C16orf70 (UniProt Q9BSU1)
inactive: tipifarnib -0.028 | [4] 0.237 | [5] -0.106 | entinostat 0.064 | citarinostat 0.001 | [7] 0.224 | [8] -0.024

CALM1 (UniProt G3V361)
inactive: dasatinib -0.049 | [4] 0.351 | entinostat -0.02

CABLES2 (UniProt Q9BTV7)
inactive: mubritinib 0.113 | [11] -0.081 | silmitasertib -0.226

(listing goes on)

BTBD1 (UniProt Q9H0C5)
inactive: [3] 0.22

C11orf96 (UniProt Q7Z7L8)
inactive: [1] 0.028 | [2] -0.141 | [3] 0.03 | tipifarnib 0.083 | [6] 0.219 | vorinostat -0.009 | [7] -0.204

C6orf62 (UniProt Q9GZU0)
inactive: [1] -0.095 | vorinostat -0.107 | [7] -0.111

C8orf37 (UniProt Q96NL8)
inactive: [7] 0.002

CAMK2A isoform 2 (UniProt Q9UQM7)
inactive: dasatinib -0.192

CA3 (UniProt P07451)
inactive: [3] 0.085 | [4] 0.192 | entinostat -0.2 | [7] 0.184

C5 (UniProt P01031)
inactive: [1] -0.277 | [2] 0.291 | [4] -0.007 | [6] 0.08 | entinostat 0.023 | vorinostat -0.178 | [7] 0.022

C8B (UniProt P07358)
inactive: dasatinib -0.048

C3orf86 (UniProt P0DN24)
inactive: nilotinib -0.037 | [9] -0.446 | [10] 0.587 | mubritinib -0.081 | [11] 0.152 | silmitasertib -0.139

CALD1 (UniProt Q05682)
inactive: [1] -0.082 | [2] 0.24 | [3] 0.191 | tipifarnib -0.139 | [4] 0.11 | entinostat -0.01 | vorinostat 0.185 | [7] -0.085

C9orf85 isoform 1 (UniProt Q96MD7)
inactive: nilotinib -0.063 | [9] -0.083 | dasatinib -0.033 | [10] 0.126 | [2] 0.05 | tipifarnib -0.036 | mubritinib -0.088 | [4] 0.029 | [5] -0.049 | [11] 0.081 | [6] 0.029 | entinostat -0.03 | silmitasertib 0.005 | [7] 0.157

CAD (UniProt H7BZB3)
inactive: [5] 0.124
